# Primary screen of a compound library

Sequences of proteins named here, by UniProt entry; tags and fusion partners are left off.
UniProt E9BF75, entry or part of it: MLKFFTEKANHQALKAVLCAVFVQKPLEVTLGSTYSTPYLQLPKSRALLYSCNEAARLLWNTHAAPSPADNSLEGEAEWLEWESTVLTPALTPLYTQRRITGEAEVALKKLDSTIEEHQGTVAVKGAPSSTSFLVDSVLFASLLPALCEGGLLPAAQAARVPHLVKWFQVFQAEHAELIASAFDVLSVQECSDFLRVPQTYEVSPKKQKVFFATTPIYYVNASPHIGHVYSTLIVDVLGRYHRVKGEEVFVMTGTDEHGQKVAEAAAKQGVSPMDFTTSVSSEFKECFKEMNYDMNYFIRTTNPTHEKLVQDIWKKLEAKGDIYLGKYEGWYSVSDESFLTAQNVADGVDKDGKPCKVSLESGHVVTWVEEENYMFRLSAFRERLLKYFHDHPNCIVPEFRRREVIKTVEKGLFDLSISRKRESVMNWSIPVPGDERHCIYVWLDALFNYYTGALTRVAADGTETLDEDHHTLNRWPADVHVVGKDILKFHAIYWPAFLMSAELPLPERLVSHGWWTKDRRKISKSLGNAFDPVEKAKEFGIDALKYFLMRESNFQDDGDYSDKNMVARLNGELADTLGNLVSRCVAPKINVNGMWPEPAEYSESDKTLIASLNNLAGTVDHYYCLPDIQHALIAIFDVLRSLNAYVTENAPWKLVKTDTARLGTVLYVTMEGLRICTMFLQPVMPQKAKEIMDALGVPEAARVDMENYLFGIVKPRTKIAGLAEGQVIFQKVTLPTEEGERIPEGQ

A: 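Methionyl-tRNA synthetase (putative), Leishmania donovani (UniProt E9BF75). Primary screen of methionyl-tRNA synthetase; the read-out is not stated. The test concentration is not given. The values are filed as inhibition. Of about 68,000 compounds tested this way, about 24 (0.035%) reached 50% or more in at least one test.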
B: 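Assay on Mycobacterium tuberculosis, filed only as a heat shock assay from Cornell; the read-out is not stated. The concentration is filed as 10 mM, unlikely as a test dose, so the dose is not known. Direction is inferred from retests: higher values go with stronger inhibition. Size under these conditions: about 69,000 compounds, about 930 of them at 50% or above in at least one test.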

All values are in %. The record does not define 0% and 100%; most values in the screen are far below 50% and negative numbers occur (in some assays of this library far below -100). Compounds were drawn at random from those tested, without regard to their results.

structure: Cc1nc2n(n1)CC(NCc1ccnc(-c3ccccc3)n1)CC2 (stereo not drawn)
A: 23.2%
B: 8.386%

structure: CCCN1CCC2(C1)c1ccccc1S(=O)(=O)N2Cc1ccccc1.O=C(O)C(F)(F)F (stereo not drawn)
B: 0.3412%

structure: O=C(c1ccco1)N1CCCC2(CN(Cc3ccc(F)cc3)CCO2)C1 (stereo not drawn)
A: 18.57%

structure: O=C(CN1CCSCC1c1ccccc1)N1CCOCC1 (stereo not drawn)
A: 16.99%
B: -12.38%

structure: O=C(C1CCCO1)N1CCC(n2cc(-c3ccc(F)cc3)nn2)CC1 (stereo not drawn)
A: 14.89%
B: -4.272%

structure: Cc1nc(C(=O)N2CCC(c3nccn3Cc3ccncc3)CC2)cs1
A: 14.05%
B: 9.346%

structure: CCCS(=O)(=O)N1CCC(c2ccc(OC)cc2)CC1
A: 20.21%
B: -13.06%

structure: [H][C@@]12CS(=O)(=O)C[C@]1([H])N(C(=O)Cc1ccc(CO)cc1)CCN2CC1CC1
B: -15.83%

structure: Cc1ccc(C#N)c(N2CCCC(c3nccn3Cc3cscn3)C2)n1 (stereo not drawn)
A: 12.29%
B: -7.642%

structure: CCNC(=O)[C@H]1CN(Cc2ccccc2)C[C@@H]1C(=O)c1ccccc1
A: 10.94%
B: 13.74%

structure: c1ccc([C@@H]2CN(Cc3cccnc3)C[C@H]2c2cc[nH]n2)cc1
A: 14.78%

structure: COCC(=O)NC[C@]12COC[C@H]1CN(c1ncc(F)cn1)C2
A: 12.94%

structure: O=C(NCC1CC(=O)N(CCc2ccccc2)C1)c1c(F)cccc1F (stereo not drawn)
A: 10.44%
B: 23.31%

structure: COc1ccc(Br)cc1CCC(=O)N1CCCC1
A: 8.333%
B: 28.22%

structure: COCC1CC2(CCN(C(=O)c3cc(C)oc3C)CC2)CN1C(C)C (stereo not drawn)
A: 10.48%

structure: CCC(C)(COc1ncccc1Cl)NCC(=O)NCC(C)C (stereo not drawn)
A: 8.58%
B: -8.184%

structure: NC(=O)NC(=O)CCN1CCC(C(=O)c2cc(F)ccc2F)CC1
A: 14.7%
B: -3.311%

structure: Cn1ccnc1CC1CCCN(C(=O)Nc2cccn(C)c2=O)C1 (stereo not drawn)
A: 20%
B: 9.062%

structure: O=C(CCc1nnc(-c2ccccc2)o1)N1CCCC1c1ccc[nH]1 (stereo not drawn)
A: 3.361%
B: -1.66%

structure: O=c1ccc(-c2cccs2)nn1CN1CCN(C2CCS(=O)(=O)C2)CC1 (stereo not drawn)
A: 15.45%
B: -2.267%

structure: CNC(=O)c1ccnc(N2CCCC(COc3cccc(C)c3)C2)c1 (stereo not drawn)
A: 16.03%
B: -7.127%

structure: COc1ccc(-n2nnc(C(N)=O)n2)cc1
A: 12.14%
B: -29.6%

structure: COCCN1CCCC1c1cccc2c1OCCO2 (stereo not drawn)
A: 1.592%
B: -2.57%

structure: CCn1ccnc1CN(C)CC1CCCN1c1cccnn1 (stereo not drawn)
A: 10.49%
B: -3.971%

structure: Cc1noc(C(C)Nc2ccc(N3CCOCC3)cc2C)n1 (stereo not drawn)
A: 10.57%
B: 41.84%

structure: CS(=O)(=O)N1CCCN(c2nccn3cnnc23)CC1
A: 12.89%
B: -8.626%

structure: CCN(C)S(=O)(=O)NCC1(c2cccc(Br)c2)CC1
A: 10.31%
B: -29.79%

From ChEMBL document CHEMBL3988442, “University of Dundee, Small-Polar-MMV Screening Library” (2021).